Results on eleven compounds are retold here after the supplement of paper PMC4604168 (melanoma cell lines).

Some test systems named below: 501Mel; A101D; A2058; C32; CBRC008; CBRC014; CBRC016; CBRC017.
Experiment in all cases: cleaved PARP positive nuclei fraction relative to DMSO control; melanoma cells; higher = more apoptosis
Common to all, as to details: library dose: low library concentration; 72 h

The other results are listed elsewhere or left out. Repeats are few or missing, and single values can be far off.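 Cells were imaged in 1,536-well plates, and nuclei stained with an antibody against cleaved PARP were counted against all DNA-stained nuclei to give the apoptosis fraction. Screening doses were chosen to leave most cells alive, and resting and induced cleaved-PARP levels differ strongly between cell lines.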

Consider `CN1CCN(c2ccc3nc(-c4c(N)c5c(F)cccc5[nH]c4=O)[nH]c3c2)CC1` [Dovitinib] + O=C(Oc1ccc([N+](=O)[O-])cc1)N1CCC(C(O)(c2ccc3c(c2)OCO3)c2ccc3c(c2)OCO3)CC1 [JZL184] (first compound 0.1 µM, partner dose 1 µM), for which the “cleaved PARP positive nuclei fraction” value in the experiment on 501Mel was 99.4%; with A101D it was 46.2%; in the experiment on A2058, 89.4%; in the experiment on C32, 168%; with CBRC008, 151%; in the experiment on CBRC014 (line from a melanoma biopsy), 97.7%. Besides, the “cleaved PARP positive nuclei fraction” value was 51.9% with CBRC016 and 97.5% in the experiment with CBRC017.

For the compound `C[C@]12O[C@H](C[C@]1(O)CO)n1c3ccccc3c3c4c(c5c6ccccc6n2c5c31)CNC4=O` [Lestaurtinib] + Cc1cc([N+](=O)[O-])ccc1NS(=O)(=O)c1cc(Cl)ccc1Cl [FH535] (first compound 0.004 µM, partner dose 1 µM), the “cleaved PARP positive nuclei fraction” value stood at 63.2% in the experiment with 501Mel; 63.4% with A101D; 190% in the experiment with A2058; 283% in the experiment on C32; 2180% with CBRC008; 183% with CBRC014. The entries for the “cleaved PARP positive nuclei fraction” value in the experiment with CBRC016 and with CBRC017 were 3050% and 322%, respectively.

For the compound `Cc1cn(-c2cc(NC(=O)c3ccc(C)c(Nc4nccc(-c5cccnc5)n4)c3)cc(C(F)(F)F)c2)cn1` [nilotinib] + O=C(Oc1ccc([N+](=O)[O-])cc1)N1CCC(C(O)(c2ccc3c(c2)OCO3)c2ccc3c(c2)OCO3)CC1 [JZL184] (first compound 0.2 µM, partner dose 1 µM), the “cleaved PARP positive nuclei fraction” value is 67.5% with 501Mel; 8.42% with A101D; 103% in the experiment with A2058; 37.1% with C32; 68.8% in the experiment on CBRC008 (line from a melanoma biopsy); 108% with CBRC014. For the same compound, the “cleaved PARP positive nuclei fraction” value came out at 81.7% with CBRC016 and 121% with CBRC017.

Consider `CCCCCCCCc1ccc(CCC(N)(CO)CO)cc1` [fingolimod] + O=C(Oc1ccc([N+](=O)[O-])cc1)N1CCC(C(O)(c2ccc3c(c2)OCO3)c2ccc3c(c2)OCO3)CC1 [JZL184] (first compound 2 µM, partner dose 1 µM), for which the “cleaved PARP positive nuclei fraction” value was determined as 142% in the experiment with 501Mel; 14.3% with A101D; 435% in the experiment with A2058; 95.5% in the experiment with C32; 92.3% with CBRC008; 112% with CBRC014. The “cleaved PARP positive nuclei fraction” value was 22.9% in the experiment on CBRC016 (line from a melanoma biopsy) and 116% in the experiment with CBRC017.

For the compound `C[C@]12O[C@H](C[C@]1(O)CO)n1c3ccccc3c3c4c(c5c6ccccc6n2c5c31)CNC4=O` [Lestaurtinib] + O=C1NC(=O)/C(=C/c2ccc(-c3ccc(F)cc3O)o2)S1 [AS252424] (first compound 0.004 µM, partner dose 1 µM), the “cleaved PARP positive nuclei fraction” value came to 160% in the experiment with 501Mel; 21.8% in the experiment with A101D; 107% in the experiment with A2058; 96.3% with C32; 104% in the experiment with CBRC008; 88.8% with CBRC014. The figures for the “cleaved PARP positive nuclei fraction” value in the experiment with CBRC016 and in the experiment on CBRC017 (line from a melanoma biopsy) were 129% and 95.7%, respectively.

As to `N.N.[Cl][Pt][Cl]` [cisplatin] + CCCCCCCCCCCC1=C(O)C(=O)C=C(O)C1=O [Embelin] (first compound 1.6 µM, partner dose 1.2 µM), the “cleaved PARP positive nuclei fraction” value in the experiment with 501Mel came out at 74.3%; in the experiment with A101D, 55.9%; in the experiment with A2058, 34.1%; in the experiment on C32 it was 63.6%; in the experiment on CBRC008 it was 75%; in the experiment on CBRC014, 116%. Besides, the entries for the “cleaved PARP positive nuclei fraction” value with CBRC016 and in the experiment with CBRC017 were 82.1% and 235%, respectively.

With `Cc1ccc(Nc2nccc(N(C)c3ccc4c(C)n(C)nc4c3)n2)cc1S(N)(=O)=O` [Pazopanib] + Cc1cc(SCc2sc(-c3ccc(C(F)(F)F)c(F)c3)nc2C)ccc1OCC(=O)O [GW0742] (first compound 0.4 µM, partner dose 2 µM), the “cleaved PARP positive nuclei fraction” value in the experiment with 501Mel is 66.6%; with A101D it was 69.2%; in the experiment on A2058, 144%; in the experiment with C32 it was 84.9%; with CBRC008, 115%; in the experiment with CBRC014, 125%. The “cleaved PARP positive nuclei fraction” value in the experiment with CBRC016 amounted to 22.9%; in the experiment with CBRC017, 119%.

Take `Cn1cc(C2=C(c3cn(C4CCN(Cc5ccccn5)CC4)c4ccccc34)C(=O)NC2=O)c2ccccc21` [Enzastaurin] + COc1ccc2c(c1)CCC1C2CCC2(C)C(NCCCCCCN3C(=O)C=CC3=O)CCC12 [U73122] (first compound 0.8 µM, partner dose 0.4 µM): the “cleaved PARP positive nuclei fraction” value came out at 97.5% in the experiment with 501Mel; 27.6% in the experiment on A101D; 62% with A2058; 163% in the experiment on C32; 114% in the experiment with CBRC008; 124% in the experiment with CBRC014. The “cleaved PARP positive nuclei fraction” value in the experiment with CBRC016 stood at 88%; in the experiment with CBRC017, 149%.

Take `CCCCCCCCc1ccc(CCC(N)(CO)CO)cc1` [fingolimod] + Cc1cc(SCc2sc(-c3ccc(C(F)(F)F)c(F)c3)nc2C)ccc1OCC(=O)O [GW0742] (first compound 2 µM, partner dose 2 µM): the “cleaved PARP positive nuclei fraction” value in the experiment on 501Mel was found to be 321%; with A101D, 24.6%; in the experiment on A2058, 25.1%; in the experiment on C32, 129%; in the experiment on CBRC008, 75.4%; in the experiment with CBRC014 it was 120%. In addition, the “cleaved PARP positive nuclei fraction” value was found to be 54.7% with CBRC016 and 103% in the experiment on CBRC017.

For `Cn1sc(=O)n(Cc2ccccc2)c1=O` + Cc1cc(SCc2sc(-c3ccc(C(F)(F)F)c(F)c3)nc2C)ccc1OCC(=O)O [GW0742] (first compound 0.4 µM, partner dose 2 µM), the “cleaved PARP positive nuclei fraction” value was 124% with 501Mel; 40% with A101D; 107% with A2058; 56.4% in the experiment with C32; 159% in the experiment on CBRC008; 88% with CBRC014. In addition, the “cleaved PARP positive nuclei fraction” value in the experiment on CBRC016 worked out at 72.4%; in the experiment on CBRC017 it was 105%.

With `N.N.[Cl][Pt][Cl]` [cisplatin] + Cn1cc(/C=C2\C(=O)Nc3cccnc32)c2ccccc21 [GW441756] (first compound 1.6 µM, partner dose 0.4 µM), the “cleaved PARP positive nuclei fraction” value worked out at 39.2% in the experiment on 501Mel; 35.8% in the experiment with A101D; 137% in the experiment on A2058; 144% in the experiment with C32; 122% in the experiment with CBRC008; 96.6% in the experiment with CBRC014. In addition, the “cleaved PARP positive nuclei fraction” value was 140% with CBRC016 and 251% in the experiment on CBRC017.
